Taken from: PubChem BioAssay AID1259405 (NCATS, 2018)
Aim: 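Silenced genes that increase secreted GFP made by CHO cells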 (primary screen). System: Chinese hamster CHO-K1 ovary cells with stable secreted eGFP expression. Reagents: single siRNA against mouse genes, 0.8 pmol siRNA per well (2 µl of 400 nM stock). Timing: 3 days. Measurement: 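Percent of the per-plate non-targeting control median for intracellular GFP per well by laser scanning cytometry and for cell viability by ATP luminescence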. Direction: GFP, % of control: higher = more GFP per well, higher productivity; viability (ATP), % of control: higher = more viable cells (more ATP). Rule for the call: 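Called active when intracellular GFP, relative to negative control, is at or above 120%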.
In all, the deposit lists about 50,000 reagents; shown is an unselected part. About 4,000 of all reagents (8%) were called active. 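Mouse siRNA library applied to hamster cells; one well for each siRNA.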 A number with no mark means an inactive call. The numbers tell different reagents against one gene apart.

Depletion of Or6c209 #1 came out at: GFP, % of control 66.5; viability (ATP), % of control 67.8. Depletion of Or6c209 #2 resulted in: GFP, % of control 51; viability (ATP), % of control 79.6. For Or6c209 #3, the values are GFP, % of control 84; viability (ATP), % of control 78.3. Against Kctd20 #1, the values are GFP, % of control 98.5; viability (ATP), % of control 78.8. Knock-down of Kctd20 #2 resulted in: GFP, % of control 37.2; viability (ATP), % of control 21.2. Kctd20 #3 showed GFP, % of control 47.3; viability (ATP), % of control 68.8.

Knock-down of Nedd4l #1 came out at: GFP, % of control 74.9; viability (ATP), % of control 55.9. Silencing of Nedd4l #2 came out at: GFP, % of control 39.8; viability (ATP), % of control 39.7. Against Nedd4l #3, the entry reads GFP, % of control 91.2; viability (ATP), % of control 104. For Gm5444 #1, the values are GFP, % of control 77.6; viability (ATP), % of control 80.5. Depletion of Gm5444 #2 gave: GFP, % of control 86.3; viability (ATP), % of control 49.3. With knock-down of Gm5444 #3 the results were GFP, % of control 112; viability (ATP), % of control 75.4.

With knock-down of Ly9 #1 the results were GFP, % of control 59.2; viability (ATP), % of control 60.5. Ly9 #2 scored GFP, % of control 79.7; viability (ATP), % of control 71. For Ly9 #3, the values are GFP, % of control 57.7; viability (ATP), % of control 69.7. Lsr #1 scored GFP, % of control 75.2; viability (ATP), % of control 89.1. Lsr #2 gave GFP, % of control 84.3; viability (ATP), % of control 82.4. Depletion of Lsr #3 gave: GFP, % of control 85.1; viability (ATP), % of control 63.1.

Polr3b #1 scored GFP, % of control 114; viability (ATP), % of control 128. With knock-down of Polr3b #2, the record shows GFP, % of control 61.8; viability (ATP), % of control 69.9. For Peli1 #1 the deposit lists GFP, % of control 84.8; viability (ATP), % of control 63.8. Silencing of Peli1 #2 resulted in: GFP, % of control 142 (active); viability (ATP), % of control 66.2. Depletion of Peli1 #3 came out at: GFP, % of control 88; viability (ATP), % of control 77.4. For Zfp768 #1, the entry reads GFP, % of control 63.4; viability (ATP), % of control 62.8.

Silencing of Zfp768 #2 resulted in: GFP, % of control 63.2; viability (ATP), % of control 67.6. Depletion of Zfp768 #3 resulted in: GFP, % of control 70.2; viability (ATP), % of control 88.7. Silencing of Evi2b #1 came out at: GFP, % of control 56; viability (ATP), % of control 62.2. Evi2b #2 gave GFP, % of control 67.9; viability (ATP), % of control 80.8. After knock-down of Evi2b #3, the screen gave GFP, % of control 78; viability (ATP), % of control 83. Ugp2 #1 scored GFP, % of control 44.6; viability (ATP), % of control 35.8.

Ugp2 #2 showed GFP, % of control 40.4; viability (ATP), % of control 73.6. After knock-down of Ugp2 #3, the screen gave GFP, % of control 72; viability (ATP), % of control 72.4. Lamb2 #1 gave GFP, % of control 99.4; viability (ATP), % of control 131. With knock-down of Lamb2 #2, the screen gave GFP, % of control 86.7; viability (ATP), % of control 98.7. Depletion of Vmn1r80 #1 gave: GFP, % of control 64.8; viability (ATP), % of control 33.8. Depletion of Vmn1r80 #2 came out at: GFP, % of control 77.2; viability (ATP), % of control 88.8.

Against Vmn1r80 #3, the values are GFP, % of control 57.4; viability (ATP), % of control 90.7. With knock-down of Stk11ip #1 the results were GFP, % of control 118; viability (ATP), % of control 105. Stk11ip #2 showed GFP, % of control 26.9; viability (ATP), % of control 44.9. Silencing of Or1s2 #1 came out at: GFP, % of control 82.3; viability (ATP), % of control 28.7. Or1s2 #2 gave GFP, % of control 83.6; viability (ATP), % of control 65. Knock-down of Or1s2 #3 gave: GFP, % of control 54.4; viability (ATP), % of control 75.4.

5 entries from above in another layout.
target gene	siRNA no.	GFP, % of control	viability (ATP), % of control
Lsr	3	85.1	63.1
Polr3b	1	114	128
Polr3b	2	61.8	69.9
Peli1	1	84.8	63.8
Peli1	2	142 (active)	66.2
